# According to the supplement of paper PMC10849652:
# The chains behind the UniProt entries cited, without tags or fusion partners. Where a name states a change or a piece, a line headed by the entry shows the natural chain unless it says otherwise.
# UniProt Q9Y5K5, whole entry, looked up: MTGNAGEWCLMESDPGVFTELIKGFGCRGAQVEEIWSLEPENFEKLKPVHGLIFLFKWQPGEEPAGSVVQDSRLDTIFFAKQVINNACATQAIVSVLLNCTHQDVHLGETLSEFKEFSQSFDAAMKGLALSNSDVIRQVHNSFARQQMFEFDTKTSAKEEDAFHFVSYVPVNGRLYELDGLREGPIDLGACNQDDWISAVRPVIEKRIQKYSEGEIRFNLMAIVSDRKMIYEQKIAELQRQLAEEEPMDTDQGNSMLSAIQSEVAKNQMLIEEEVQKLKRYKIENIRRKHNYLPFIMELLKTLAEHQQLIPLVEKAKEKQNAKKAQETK
# UniProt P62256: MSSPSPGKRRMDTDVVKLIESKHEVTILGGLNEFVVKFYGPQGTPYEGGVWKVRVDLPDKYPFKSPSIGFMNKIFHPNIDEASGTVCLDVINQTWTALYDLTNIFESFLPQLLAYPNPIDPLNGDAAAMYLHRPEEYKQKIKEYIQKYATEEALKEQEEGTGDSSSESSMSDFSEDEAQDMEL
# UniProt Q6IPR3: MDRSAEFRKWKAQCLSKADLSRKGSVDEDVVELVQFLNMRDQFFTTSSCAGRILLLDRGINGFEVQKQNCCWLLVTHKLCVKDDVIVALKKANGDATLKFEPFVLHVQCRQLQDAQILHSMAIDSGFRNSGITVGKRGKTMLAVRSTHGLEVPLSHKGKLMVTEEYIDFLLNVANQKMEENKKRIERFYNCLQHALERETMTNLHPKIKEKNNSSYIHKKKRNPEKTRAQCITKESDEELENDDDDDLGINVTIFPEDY
# UniProt P68036, whole entry, looked up: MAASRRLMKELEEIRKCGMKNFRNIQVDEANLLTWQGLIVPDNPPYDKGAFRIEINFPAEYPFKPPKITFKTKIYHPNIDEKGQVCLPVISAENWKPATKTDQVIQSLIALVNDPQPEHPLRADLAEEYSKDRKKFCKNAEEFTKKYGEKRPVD
# UniProt P51668: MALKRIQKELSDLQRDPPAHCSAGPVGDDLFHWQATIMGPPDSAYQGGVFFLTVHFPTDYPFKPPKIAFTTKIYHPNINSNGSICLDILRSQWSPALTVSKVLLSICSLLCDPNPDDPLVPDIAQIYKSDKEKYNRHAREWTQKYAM
# UniProt O95071: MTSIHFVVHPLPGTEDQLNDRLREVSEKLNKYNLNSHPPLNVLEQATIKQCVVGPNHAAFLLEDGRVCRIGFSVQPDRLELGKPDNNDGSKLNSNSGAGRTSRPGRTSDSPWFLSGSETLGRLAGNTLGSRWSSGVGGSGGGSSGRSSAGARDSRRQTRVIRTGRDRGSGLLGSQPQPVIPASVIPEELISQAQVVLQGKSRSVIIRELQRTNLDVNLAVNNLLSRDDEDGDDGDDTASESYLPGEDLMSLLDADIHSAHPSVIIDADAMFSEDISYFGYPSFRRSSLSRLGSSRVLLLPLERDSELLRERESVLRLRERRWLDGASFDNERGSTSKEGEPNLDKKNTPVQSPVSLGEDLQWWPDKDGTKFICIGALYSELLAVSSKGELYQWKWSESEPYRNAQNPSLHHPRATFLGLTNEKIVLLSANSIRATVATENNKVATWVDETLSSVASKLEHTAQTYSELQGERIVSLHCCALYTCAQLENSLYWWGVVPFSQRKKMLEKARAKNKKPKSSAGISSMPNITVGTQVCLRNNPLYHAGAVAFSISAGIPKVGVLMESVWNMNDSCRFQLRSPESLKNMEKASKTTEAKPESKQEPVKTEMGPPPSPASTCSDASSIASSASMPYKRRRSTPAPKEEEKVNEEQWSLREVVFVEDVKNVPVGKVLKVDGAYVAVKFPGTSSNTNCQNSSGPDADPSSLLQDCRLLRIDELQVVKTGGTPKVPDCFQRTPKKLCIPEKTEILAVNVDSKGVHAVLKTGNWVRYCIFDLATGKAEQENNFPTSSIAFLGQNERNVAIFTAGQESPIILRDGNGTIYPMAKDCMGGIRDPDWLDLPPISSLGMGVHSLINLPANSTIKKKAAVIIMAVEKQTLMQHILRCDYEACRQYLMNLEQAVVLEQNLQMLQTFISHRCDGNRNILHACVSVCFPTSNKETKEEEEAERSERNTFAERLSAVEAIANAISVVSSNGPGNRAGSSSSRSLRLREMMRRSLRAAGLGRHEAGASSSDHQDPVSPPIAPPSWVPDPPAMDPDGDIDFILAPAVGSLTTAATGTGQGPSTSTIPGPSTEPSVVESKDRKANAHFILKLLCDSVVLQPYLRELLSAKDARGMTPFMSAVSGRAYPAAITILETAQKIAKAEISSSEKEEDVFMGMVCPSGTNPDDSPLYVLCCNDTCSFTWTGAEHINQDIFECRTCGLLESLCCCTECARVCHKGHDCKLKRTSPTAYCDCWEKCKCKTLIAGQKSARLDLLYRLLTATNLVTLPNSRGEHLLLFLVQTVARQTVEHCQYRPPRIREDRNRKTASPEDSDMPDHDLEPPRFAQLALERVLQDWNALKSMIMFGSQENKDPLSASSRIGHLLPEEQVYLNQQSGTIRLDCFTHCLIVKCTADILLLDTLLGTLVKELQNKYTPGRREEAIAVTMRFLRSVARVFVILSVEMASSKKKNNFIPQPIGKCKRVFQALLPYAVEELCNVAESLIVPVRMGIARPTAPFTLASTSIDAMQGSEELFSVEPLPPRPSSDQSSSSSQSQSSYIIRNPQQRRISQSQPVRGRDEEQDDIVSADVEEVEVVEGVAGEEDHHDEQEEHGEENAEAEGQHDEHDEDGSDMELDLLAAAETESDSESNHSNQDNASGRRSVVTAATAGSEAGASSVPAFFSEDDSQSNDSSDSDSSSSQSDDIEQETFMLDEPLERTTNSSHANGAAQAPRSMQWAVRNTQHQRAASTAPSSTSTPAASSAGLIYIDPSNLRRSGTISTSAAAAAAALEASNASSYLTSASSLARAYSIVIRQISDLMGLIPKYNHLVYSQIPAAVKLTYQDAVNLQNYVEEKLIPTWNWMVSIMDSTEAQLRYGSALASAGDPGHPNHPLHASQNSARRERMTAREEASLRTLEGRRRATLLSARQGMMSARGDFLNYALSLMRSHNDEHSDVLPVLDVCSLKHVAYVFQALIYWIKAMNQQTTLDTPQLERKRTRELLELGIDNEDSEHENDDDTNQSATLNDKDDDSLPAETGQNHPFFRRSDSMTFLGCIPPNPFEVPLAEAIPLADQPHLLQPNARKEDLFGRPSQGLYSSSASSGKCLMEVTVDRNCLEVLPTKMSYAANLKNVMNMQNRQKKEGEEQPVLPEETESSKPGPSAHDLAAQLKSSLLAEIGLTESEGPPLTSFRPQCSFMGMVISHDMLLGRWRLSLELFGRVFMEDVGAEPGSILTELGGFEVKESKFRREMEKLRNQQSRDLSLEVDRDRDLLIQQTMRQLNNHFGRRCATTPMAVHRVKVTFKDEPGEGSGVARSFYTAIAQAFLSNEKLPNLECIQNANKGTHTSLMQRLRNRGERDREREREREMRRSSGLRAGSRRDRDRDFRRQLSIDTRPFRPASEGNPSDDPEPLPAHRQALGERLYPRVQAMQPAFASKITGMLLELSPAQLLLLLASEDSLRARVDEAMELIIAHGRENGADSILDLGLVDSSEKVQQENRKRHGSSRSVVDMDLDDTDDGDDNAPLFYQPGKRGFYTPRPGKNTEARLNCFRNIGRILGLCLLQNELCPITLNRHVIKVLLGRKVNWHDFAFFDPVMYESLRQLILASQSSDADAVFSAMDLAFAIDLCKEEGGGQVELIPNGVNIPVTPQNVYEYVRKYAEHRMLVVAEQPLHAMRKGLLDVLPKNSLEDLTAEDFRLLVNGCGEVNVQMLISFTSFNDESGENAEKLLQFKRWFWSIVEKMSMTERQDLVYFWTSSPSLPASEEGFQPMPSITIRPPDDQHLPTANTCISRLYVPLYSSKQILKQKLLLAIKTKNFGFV
# UniProt P63279, whole entry, looked up: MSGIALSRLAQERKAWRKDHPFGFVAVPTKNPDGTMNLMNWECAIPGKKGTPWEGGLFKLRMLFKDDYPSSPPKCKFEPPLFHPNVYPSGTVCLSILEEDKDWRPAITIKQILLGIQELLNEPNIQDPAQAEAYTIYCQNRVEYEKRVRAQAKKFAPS
# UniProt Q9H6E5: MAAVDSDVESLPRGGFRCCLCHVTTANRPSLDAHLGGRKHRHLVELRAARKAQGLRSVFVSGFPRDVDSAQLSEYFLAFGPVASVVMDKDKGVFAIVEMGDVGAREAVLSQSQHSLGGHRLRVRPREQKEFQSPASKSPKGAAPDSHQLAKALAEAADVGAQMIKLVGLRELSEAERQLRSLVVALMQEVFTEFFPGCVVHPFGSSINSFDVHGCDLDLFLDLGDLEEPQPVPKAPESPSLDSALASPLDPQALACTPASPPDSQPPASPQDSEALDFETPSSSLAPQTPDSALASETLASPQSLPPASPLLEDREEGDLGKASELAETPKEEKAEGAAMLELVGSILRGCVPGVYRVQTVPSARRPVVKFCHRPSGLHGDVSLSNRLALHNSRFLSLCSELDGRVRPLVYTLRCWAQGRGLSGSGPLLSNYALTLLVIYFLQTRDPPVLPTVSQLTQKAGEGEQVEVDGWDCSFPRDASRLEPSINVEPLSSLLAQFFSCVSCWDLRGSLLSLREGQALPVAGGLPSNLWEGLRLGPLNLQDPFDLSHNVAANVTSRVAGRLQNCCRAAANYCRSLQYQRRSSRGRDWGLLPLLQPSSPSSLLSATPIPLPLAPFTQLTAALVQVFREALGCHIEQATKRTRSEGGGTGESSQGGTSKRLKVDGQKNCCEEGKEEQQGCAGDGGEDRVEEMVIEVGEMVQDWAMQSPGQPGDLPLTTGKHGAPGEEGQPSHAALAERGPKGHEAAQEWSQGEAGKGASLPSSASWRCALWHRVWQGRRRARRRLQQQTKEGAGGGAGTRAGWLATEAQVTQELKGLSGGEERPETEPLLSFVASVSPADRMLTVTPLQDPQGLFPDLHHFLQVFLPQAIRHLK
# UniProt Q6ZU65, whole entry, looked up: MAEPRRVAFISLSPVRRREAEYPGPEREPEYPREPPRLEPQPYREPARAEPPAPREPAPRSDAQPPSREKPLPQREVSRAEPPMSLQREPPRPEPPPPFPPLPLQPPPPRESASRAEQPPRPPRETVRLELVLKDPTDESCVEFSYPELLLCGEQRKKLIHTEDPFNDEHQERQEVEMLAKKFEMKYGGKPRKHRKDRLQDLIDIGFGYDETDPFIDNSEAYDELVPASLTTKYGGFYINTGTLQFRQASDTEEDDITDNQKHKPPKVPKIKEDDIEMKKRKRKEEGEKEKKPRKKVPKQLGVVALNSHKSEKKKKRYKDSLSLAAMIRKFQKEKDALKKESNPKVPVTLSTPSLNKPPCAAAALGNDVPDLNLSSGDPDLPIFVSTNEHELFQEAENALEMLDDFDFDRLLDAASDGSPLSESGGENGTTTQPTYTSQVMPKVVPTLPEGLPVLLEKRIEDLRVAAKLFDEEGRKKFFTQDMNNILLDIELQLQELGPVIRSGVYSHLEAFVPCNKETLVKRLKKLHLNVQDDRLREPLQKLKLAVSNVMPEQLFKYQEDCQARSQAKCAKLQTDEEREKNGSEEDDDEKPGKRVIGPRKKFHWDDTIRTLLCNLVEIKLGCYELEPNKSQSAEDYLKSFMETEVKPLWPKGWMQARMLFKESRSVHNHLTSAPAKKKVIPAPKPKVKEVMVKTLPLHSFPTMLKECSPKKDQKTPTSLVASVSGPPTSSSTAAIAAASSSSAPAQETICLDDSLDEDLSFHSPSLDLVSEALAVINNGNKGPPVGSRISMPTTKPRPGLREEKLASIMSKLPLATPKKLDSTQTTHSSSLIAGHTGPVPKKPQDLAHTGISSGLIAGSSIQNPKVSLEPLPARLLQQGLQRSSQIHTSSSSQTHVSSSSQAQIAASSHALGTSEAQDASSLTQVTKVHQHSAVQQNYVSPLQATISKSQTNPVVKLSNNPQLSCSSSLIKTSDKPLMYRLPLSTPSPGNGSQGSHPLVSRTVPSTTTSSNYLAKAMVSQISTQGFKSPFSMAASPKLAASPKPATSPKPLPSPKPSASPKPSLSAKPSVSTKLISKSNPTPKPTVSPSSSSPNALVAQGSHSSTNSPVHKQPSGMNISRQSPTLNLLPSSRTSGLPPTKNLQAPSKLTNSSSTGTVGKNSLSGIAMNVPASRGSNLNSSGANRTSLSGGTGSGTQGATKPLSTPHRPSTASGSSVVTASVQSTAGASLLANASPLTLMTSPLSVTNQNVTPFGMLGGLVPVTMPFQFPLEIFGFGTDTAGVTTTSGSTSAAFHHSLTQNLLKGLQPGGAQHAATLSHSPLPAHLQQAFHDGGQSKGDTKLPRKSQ
# UniProt Q9BTX7: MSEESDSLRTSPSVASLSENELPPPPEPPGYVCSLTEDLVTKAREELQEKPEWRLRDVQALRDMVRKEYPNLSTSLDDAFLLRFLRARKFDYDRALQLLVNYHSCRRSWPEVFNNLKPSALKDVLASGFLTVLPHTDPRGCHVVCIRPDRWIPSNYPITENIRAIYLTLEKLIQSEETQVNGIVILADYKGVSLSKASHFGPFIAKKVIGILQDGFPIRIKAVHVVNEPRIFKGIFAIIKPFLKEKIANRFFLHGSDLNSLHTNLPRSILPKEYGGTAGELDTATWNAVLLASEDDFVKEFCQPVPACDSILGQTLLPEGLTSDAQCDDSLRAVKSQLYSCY
# The other results are listed elsewhere or left out.
# Tests used:
# Experiment in all cases: log2 fold change, soluble protein after heating vs DMSO (PISA); higher = thermal stabilisation; K562 lysate, 10 uM; active = over 0.2 and 3.5 SD of the protein, either way, in both replicates (recomputed)
# [1] = compound: NCC(=O)Nc1ccc(-n2nc(C(F)(F)F)cc2-c2ccc3c(ccc4ccccc43)c2)cc1
# Method in brief: (§1)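 To prepare the extract, K562 pellets were dounce-homogenised in PBS pH 7.4 with 1 mM MgCl2, giving crude material at 1 mg/mL protein. This was treated with 10 μM compound for 30 min, then heated in aliquots for 3 min over 48°C-58°C before pooling and addition of NP-40 to 0.5% at 4°C. Centrifugation at 21,000xg for 90 min left soluble protein in the supernatant, which TMTpro 16plex LC-MS/MS quantified with equalised channel sums. Results are log-two fold changes in thermal stability compared with solvent controls, from duplicates.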
# vorinostat = compound: O=C(CCCCCCC(=O)Nc1ccccc1)NO [vorinostat]
# Method in brief: as §1
# silmitasertib = compound: O=C(O)c1ccc2c(c1)nc(Nc1cccc(Cl)c1)c1ccncc12 [silmitasertib]
# Method in brief: as §1
# [2] = compound: O=C1NC(=O)C(c2cnc3ccccn23)=C1c1cn2c3c(cc(F)cc13)CN(C(=O)N1CCCCC1)CC2
# Method in brief: as §1
# entospletinib = compound: c1cn2cc(-c3ccc4cn[nH]c4c3)nc(Nc3ccc(N4CCOCC4)cc3)c2n1 [entospletinib]
# Method in brief: as §1
Target,log2 fold change [1],log2 fold change (vorinostat),log2 fold change (silmitasertib),log2 fold change [2],log2 fold change (entospletinib)
UBA6,inactive: -0.005,inactive: -0.175,inactive: 0.015,inactive: -0.006,inactive: 0.009
UCHL5 isoform 3 (UniProt Q9Y5K5),inactive: 0.004,inactive: -0.081,inactive: 0,inactive: -0.009,inactive: -0.003
UBE2H (UniProt P62256),inactive: 0.023,inactive: 0.093,inactive: -0.003,inactive: -0.003,inactive: -0.012
TYW3 (UniProt Q6IPR3),inactive: 0.036,active: -0.694,inactive: 0,inactive: -0.042,inactive: -0.001
TUBGCP3 (UniProt Q96CW5),inactive: -0.014,active: -0.459,inactive: -0.014,inactive: 0.019,inactive: -0.003
UCHL5 (UniProt Q5LJA9),inactive: -0.017,active: -0.361,inactive: 0.004,inactive: -0.086,inactive: -0.011
UBE2L3 isoform 3 (UniProt P68036),inactive: 0.057,inactive: 0.057,inactive: -0.043,inactive: 0.019,inactive: -0.002
UBR3 isoform 4 (UniProt Q6ZT12),inactive: -0.011,active: -0.43,inactive: 0.023,inactive: -0.005,inactive: -0.003
TUBB6 (UniProt K7ES63),inactive: -0.062,inactive: -0.414,inactive: 0.013,inactive: -0.164,inactive: -0.11
UBA3 (UniProt Q8TBC4),inactive: 0.001,inactive: -0.202,inactive: 0.023,inactive: -0.029,inactive: 0
UBE2D1 (UniProt P51668),inactive: -0.01,inactive: 0.088,inactive: -0.101,inactive: -0.001,inactive: 0.056
UBR5 (UniProt O95071),inactive: 0.009,active: -0.234,inactive: 0.011,inactive: -0.011,inactive: -0.006
UBE2I (UniProt P63279),inactive: -0.013,inactive: 0.061,inactive: 0.005,inactive: -0.015,inactive: 0.034
UBFD1 (UniProt O14562),inactive: 0.021,inactive: 0.131,inactive: -0.026,inactive: 0.022,inactive: 0.009
TUT1 (UniProt Q9H6E5),inactive: 0.101,inactive: -0.062,inactive: 0.023,inactive: 0,inactive: -0.024
UBE2O (UniProt Q9C0C9),inactive: 0.086,inactive: 0.003,inactive: -0.025,inactive: 0.017,inactive: -0.002
UBN2 (UniProt Q6ZU65),inactive: 0.265,inactive: -0.164,inactive: 0.036,inactive: -0.186,inactive: 0.075
UBA1 (UniProt P22314),inactive: 0.018,active: -0.371,inactive: 0.01,inactive: -0.003,inactive: 0.02
UBR2 isoform 4 (UniProt Q8IWV8),inactive: -0.028,inactive: -0.178,inactive: 0.008,inactive: -0.006,inactive: 0.005
TUBA1B (UniProt P68363),inactive: -0.005,active: -0.66,inactive: 0.018,inactive: 0.026,inactive: 0.01
UBA5 (UniProt Q9GZZ9),inactive: -0.023,inactive: -0.017,inactive: -0.012,inactive: 0.026,inactive: 0.006
TXNRD2 (UniProt Q9NNW7),inactive: -0.016,inactive: 0.125,inactive: -0.025,inactive: 0.029,inactive: 0.023
UAP1L1 (UniProt Q3KQV9),inactive: -0.162,inactive: -0.194,inactive: 0.032,inactive: -0.073,inactive: -0.039
UBQLN2 (UniProt Q9UHD9),inactive: -0.065,inactive: 0.143,inactive: -0.027,inactive: 0.015,inactive: -0.016
UBR1 (UniProt Q8IWV7),inactive: -0.04,active: -0.239,inactive: 0.025,inactive: 0.008,inactive: -0.024
TUBD1 (UniProt Q9UJT1),inactive: 0.177,inactive: 0.023,inactive: -0.036,inactive: 0.043,inactive: 0.101
TTPAL (UniProt Q9BTX7),inactive: 0.034,inactive: 0.057,inactive: 0.026,inactive: -0.001,inactive: 0

# Whole records as entered above. Values in the order: log2 fold change [1] | log2 fold change (vorinostat) | log2 fold change (silmitasertib) | log2 fold change [2] | log2 fold change (entospletinib)
# UAP1L1 (UniProt Q3KQV9) reads inactive: -0.162 | inactive: -0.194 | inactive: 0.032 | inactive: -0.073 | inactive: -0.039
# TTPAL (UniProt Q9BTX7) reads inactive: 0.034 | inactive: 0.057 | inactive: 0.026 | inactive: -0.001 | inactive: 0
